Source: PubChem BioAssay AID540276 (National Center for Advancing Translational Sciences (NCATS), 2011)
Several values for one entry are separate records, joined by “and”; a condition that tells them apart may be missing. Identical values can stand only once. About 5,400 (1.8%) of roughly 300,000 compounds were called active. The inconclusive results got no clear call from the source; some entries with a clear call stand among them for comparison. Calls come from the whole dose curve; tested in HEK293 cells. Potencies beside an inconclusive call are fits to weak or partial responses and may not hold up.

Assay: qHTS for inhibitors of binding or entry into cells for Marburg Virus
Details: Marburg virus pseudotyped entry inhibition, cell reporter; series mostly up to 37.8 µM
Potency is the fitted concentration of half-maximal effect.

Row | SMILES | Potency
1 | COc1ccc(C(=O)NNC(=O)CN2CCC(n3nnc4cc(C)ccc43)CC2)cc1 | inactive
2 | CN(CC=CCN(C)P(=S)(N1CC1)N1CC1)P(=S)(N1CC1)N1CC1 | inconclusive: 15.8 µM [inhibitor, partial curve, poor fit]
3 | O=C(Nc1nc(=O)c2ccccc2s1)c1ccccc1 | inconclusive: 35.5 µM [inhibitor, single point]
4 | COc1ccc(Cl)cc1NC(=O)CN1c2ccccc2CC1C (stereo not drawn) | inconclusive: 1.41 µM [inhibitor, full curve]
5 | Cn1cccc1/C=C1\C(=O)NC(=O)N(Cc2ccccc2)C1=O | inactive
6 | CC(C)NC(=O)CSc1nnc2sc3ccccc3n12 | inactive
7 | O=C(NC1CCCCC1)c1cccs1 | inactive
8 | CC(C)c1ccc(NC2CCCN(C(=O)c3cccnc3)C2)cc1 (stereo not drawn) | inactive
9 | COc1cccc(Oc2nc3c(c(=O)n(Cc4ccccc4Cl)c(=O)n3C)n2C)c1 | inconclusive: 5.62 µM [activator, full curve, poor fit]
10 | CCOc1ccc(-c2cc3c(=O)n(Cc4nc(-c5ccc(OC)cc5OC)oc4C)ccn3n2)cc1Cl | inconclusive: 35.5 µM [activator, single point]
11 | Cc1nn(CCc2n[nH]c(=S)n2-c2cccc(Cl)c2)c(C)c1[N+](=O)[O-] | inactive
12 | O=C(CSc1nnc(CN2CCOCC2)n1-c1ccc(Cl)cc1)Nc1ccc2c(c1)OCO2 | inconclusive: 18.3 µM [inhibitor, single point]
13 | CCc1c(C(=O)NCc2ccccc2Cl)[nH]c(C)c1C(C)=O | inconclusive: 35.5 µM [inhibitor, partial curve, poor fit]
14 | Cc1ccc(C(O)(C(=O)NNc2ccccn2)c2ccc(C)cc2)cc1 | inactive
15 | COC(=O)C1=C(C)N(Cc2ccccc2)C(=NCc2ccccc2)NC1c1ccccc1 (stereo not drawn) | inconclusive: 5.31 µM [inhibitor, single point]
16 | CCN1CCCC1CN(Cc1cc2ccc(C)cc2[nH]c1=O)C(=S)Nc1cccc(OC)c1 (stereo not drawn) | active: 10 µM
17 | O=C(CSCc1ccc(Cl)cc1)Nc1cccc(C(=O)O)c1 | inconclusive: 1.26 µM [activator, single point]
18 | Cc1cc(NC(=O)CCC(=O)N(Cc2ccco2)C(C(=O)NC2CCCC2)c2ccccc2C)no1 (stereo not drawn) | inconclusive: 35.5 µM [inhibitor, single point]
19 | O=C(Nc1nnc(C2CCCO2)s1)c1ccc(Br)cc1 (stereo not drawn) | inactive
20 | CCC(NS(=O)(=O)c1ccc(OC)cc1)C(=O)NCCc1ccccc1 (stereo not drawn) | inconclusive: 3.16 µM [inhibitor, single point]
21 | O=c1[nH]c2ccc(NCc3ccc(-c4ccccc4F)o3)cc2[nH]1 | inactive
22 | NC(=O)c1cc(N2CC2)c([N+](=O)[O-])cc1[N+](=O)[O-] | inconclusive: 20.6 nM [inhibitor, partial curve, poor fit] and inconclusive: 199 nM [inhibitor, full curve]

Row | SMILES | Potency
23 | Cc1cc2c(cc(C(=O)OC(C(=O)NCC3CCCO3)C(C)C)n2C)o1 (stereo not drawn) | inactive
24 | Cc1cc(C)cc(NC(=O)C(c2ccccc2)N2CCCC2)c1 (stereo not drawn) | inconclusive: 20.6 µM [inhibitor, single point]
25 | COc1cc(C(C(=O)NC2CCCC2)N(Cc2ccccc2)C(=O)c2snc(C(N)=O)c2N)ccc1O (stereo not drawn) | inconclusive: 17.8 µM [activator, partial curve, poor fit]
26 | Cc1ccc(NC(=O)CN2CCCCCC2)c(Br)c1 | inconclusive: 11.2 µM [activator, partial curve, poor fit]
27 | O=c1c2ccccc2sc2ccc(Cl)cc12 | inconclusive: 35.5 µM [activator, single point]
28 | CC1CCN(C(C)C(=O)Nc2cc(S(=O)(=O)N3CCCCC3)ccc2Cl)CC1 (stereo not drawn) | inactive
29 | Cc1ccc(NC(=O)c2cccc(OCc3c(C)noc3C)c2)cc1 | inconclusive: 0.199 µM [inhibitor, full curve, poor fit]
30 | Cc1nc(C)c(C(=O)OCC(=O)NCCc2ccc(F)cc2)s1 | inactive
31 | CCN(CC)S(=O)(=O)c1ccc2oc(C(=O)NCCCN3CCOCC3)c(C)c2c1 | inconclusive: 29.1 µM [inhibitor, single point]
32 | CC(=O)c1ccccc1NS(=O)(=O)c1c(C)nn(-c2ccccc2)c1C | inconclusive: 10.3 µM [inhibitor, partial curve, poor fit]
33 | O=C(Nc1ccccc1)N1CCCN(Cc2c(F)cccc2Cl)CC1 | inconclusive: 35.5 µM [inhibitor, partial curve, poor fit]
34 | Cc1cc(N2CCCC(C(=O)Nc3cccc4ccccc34)C2)n2ncnc2n1 (stereo not drawn) | inactive
35 | Cc1cccc(OCC(O)CNC(=O)c2ccccc2C(=O)O)c1 (stereo not drawn) | inconclusive: 7.08 µM [activator, full curve, poor fit]
36 | CCOc1ccc(C(=O)N2CCC(c3nc(-c4ccc(S(=O)(=O)N5CCCC5)cc4)no3)CC2)cc1 | inconclusive: 35.5 µM [inhibitor, single point]
37 | Cc1cc(CNC(=O)C2CCC(=O)N(CCc3ccc(Cl)cc3)C2)no1 (stereo not drawn) | inconclusive: 15.8 µM [activator, single point]
38 | Cc1cc(C)c(S(=O)(=O)NCC2CCC(C(=O)NCc3ccc4c(c3)OCO4)CC2)c(C)c1 (stereo not drawn) | inconclusive: 1.03 µM [inhibitor, partial curve, poor fit]
39 | O=C(/C=C/c1cccs1)Nc1ccc(Br)cn1 | inconclusive: 35.5 µM [inhibitor, single point]
40 | O=C(NCc1ccccc1)C1CCCN(C(=O)NCc2ccccc2)C1 (stereo not drawn) | inactive
41 | O=c1c(-c2ccc([N+](=O)[O-])cc2)coc2c(O)c(O)ccc12 | inconclusive: 1.78 µM [activator, partial curve, poor fit]
42 | c1ccc(Cc2nc3ccccc3n2Cc2ccccc2)cc1 | inconclusive: 3.26 µM [inhibitor, partial curve, poor fit]
43 | CCC(c1nnc(SCC(=O)Nc2ccc(S(N)(=O)=O)cc2)n1Cc1ccccc1)N(C)C (stereo not drawn) | inconclusive: 5.62 µM [inhibitor, single point]
